Source: patent US20240277722A1, “CANCER THERAPY USING A COMBINATION OF CDK7 INHIBITOR WITH AN ANTI-CANCER AGENT” (Aurigene Oncology Limited, priority 2021, published 2024)
At least one structure is not confirmed: it was looked up by name or label, or the drawing left a doubt.

System: Z-138 cells
Test: Z-138 cell proliferation, CTG reagent, 3-day treatment, single agents and combination (CompuSyn synergy analysis)
Format: cell-based
Settings: single agent, serial dilutions, 3 days
Method: Z-138 cells were treated with serial dilutions of Compound-44A (CDK7 inhibitor), serial dilutions of venetoclax individually and in combination for 3 days. The effect of 3-day compound treatment on cell proliferation was measured using CTG reagent. Percentage inhibition of cell proliferation in individual (Compound-44A, venetoclax) and combination treatments (Compound-44A+venetoclax) were analyzed using CompuSyn software to assess synergy.

SMILES: CC1(C)CCC(CN2CCN(c3ccc(C(=O)NS(=O)(=O)c4ccc(NCC5CCOCC5)c([N+](=O)[O-])c4)c(Oc4cnc5[nH]ccc5c4)c3)CC2)=C(c2ccc(Cl)cc2)C1 [Venetoclax, venetoclax]
- inhibition of proliferation in Z-138 cells: dose dependent inhibition of proliferation
